Test results from paper doi:10.1101/2025.06.20.660667.
No constants are given. Whether binding was seen depends on the method and setting. In cells and extracts the contact can be indirect. Some binding calls cover weakened binding; strength is not graded here. Sequences can lack the tags named with a protein.

By UniProt entry, the sequences of proteins in these tests, tags left out.
UniProt P16118: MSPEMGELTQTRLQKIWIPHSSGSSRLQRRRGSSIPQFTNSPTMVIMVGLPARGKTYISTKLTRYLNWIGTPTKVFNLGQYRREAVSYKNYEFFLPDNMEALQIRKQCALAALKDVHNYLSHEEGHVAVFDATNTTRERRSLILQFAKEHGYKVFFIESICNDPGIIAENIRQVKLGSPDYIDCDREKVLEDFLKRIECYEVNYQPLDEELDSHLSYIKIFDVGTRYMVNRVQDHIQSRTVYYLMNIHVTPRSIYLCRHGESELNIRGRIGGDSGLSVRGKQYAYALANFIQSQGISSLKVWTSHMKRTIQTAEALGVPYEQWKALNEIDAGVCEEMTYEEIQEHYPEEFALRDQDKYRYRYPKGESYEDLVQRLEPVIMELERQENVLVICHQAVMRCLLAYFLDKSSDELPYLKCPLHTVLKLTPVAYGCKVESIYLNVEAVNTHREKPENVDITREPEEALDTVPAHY

Molecular target: T1, myc-tagged PP6 (UniProt O00743)
T1 sequence: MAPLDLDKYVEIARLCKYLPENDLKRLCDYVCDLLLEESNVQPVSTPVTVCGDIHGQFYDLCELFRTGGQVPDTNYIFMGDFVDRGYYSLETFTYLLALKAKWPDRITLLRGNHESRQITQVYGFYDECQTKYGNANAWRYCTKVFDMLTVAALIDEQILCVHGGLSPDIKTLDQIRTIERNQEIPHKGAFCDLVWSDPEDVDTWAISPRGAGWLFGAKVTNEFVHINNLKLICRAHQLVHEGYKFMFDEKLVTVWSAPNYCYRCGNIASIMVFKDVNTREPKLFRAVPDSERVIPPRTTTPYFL
Test: co-IP

“PFKFB1 in 293FT cells (from UniProt P16118 1-471) (enzyme)” was tested, and the binding was “binds”.
